This is one part of the list.

The chains behind the UniProt entries cited, without tags or fusion partners. Where a name states a change or a piece, a line headed by the entry shows the natural chain unless it says otherwise.
UniProt Q96C19: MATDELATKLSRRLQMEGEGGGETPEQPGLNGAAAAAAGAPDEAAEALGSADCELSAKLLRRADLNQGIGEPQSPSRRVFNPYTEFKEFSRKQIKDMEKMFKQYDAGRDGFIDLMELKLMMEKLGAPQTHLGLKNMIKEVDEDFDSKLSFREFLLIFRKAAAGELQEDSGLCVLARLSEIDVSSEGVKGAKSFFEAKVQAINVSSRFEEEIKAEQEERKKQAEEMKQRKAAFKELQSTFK
UniProt Q9H410: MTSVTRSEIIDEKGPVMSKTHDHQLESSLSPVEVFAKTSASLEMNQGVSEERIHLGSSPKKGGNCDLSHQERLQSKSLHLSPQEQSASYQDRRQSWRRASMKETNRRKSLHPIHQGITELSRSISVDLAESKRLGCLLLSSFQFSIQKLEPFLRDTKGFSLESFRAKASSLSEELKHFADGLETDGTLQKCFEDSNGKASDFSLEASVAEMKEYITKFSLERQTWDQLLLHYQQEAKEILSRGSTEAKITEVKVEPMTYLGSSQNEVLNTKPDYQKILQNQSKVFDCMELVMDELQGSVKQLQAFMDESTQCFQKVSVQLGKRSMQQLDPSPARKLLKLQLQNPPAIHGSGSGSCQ
UniProt O95620: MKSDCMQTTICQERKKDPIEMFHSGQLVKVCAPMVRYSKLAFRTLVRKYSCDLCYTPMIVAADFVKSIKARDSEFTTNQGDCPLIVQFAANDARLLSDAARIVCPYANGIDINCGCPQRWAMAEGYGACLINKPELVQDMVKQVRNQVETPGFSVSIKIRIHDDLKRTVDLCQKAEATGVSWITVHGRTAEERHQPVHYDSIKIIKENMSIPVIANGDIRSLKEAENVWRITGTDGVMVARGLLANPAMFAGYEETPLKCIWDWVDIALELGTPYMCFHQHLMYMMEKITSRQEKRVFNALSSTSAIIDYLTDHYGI
UniProt O43324: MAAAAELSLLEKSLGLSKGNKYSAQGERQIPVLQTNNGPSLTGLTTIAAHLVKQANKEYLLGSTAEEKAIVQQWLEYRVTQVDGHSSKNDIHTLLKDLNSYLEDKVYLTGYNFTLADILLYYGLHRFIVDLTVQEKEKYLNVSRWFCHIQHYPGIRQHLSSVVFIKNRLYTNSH
UniProt Q7RTS9: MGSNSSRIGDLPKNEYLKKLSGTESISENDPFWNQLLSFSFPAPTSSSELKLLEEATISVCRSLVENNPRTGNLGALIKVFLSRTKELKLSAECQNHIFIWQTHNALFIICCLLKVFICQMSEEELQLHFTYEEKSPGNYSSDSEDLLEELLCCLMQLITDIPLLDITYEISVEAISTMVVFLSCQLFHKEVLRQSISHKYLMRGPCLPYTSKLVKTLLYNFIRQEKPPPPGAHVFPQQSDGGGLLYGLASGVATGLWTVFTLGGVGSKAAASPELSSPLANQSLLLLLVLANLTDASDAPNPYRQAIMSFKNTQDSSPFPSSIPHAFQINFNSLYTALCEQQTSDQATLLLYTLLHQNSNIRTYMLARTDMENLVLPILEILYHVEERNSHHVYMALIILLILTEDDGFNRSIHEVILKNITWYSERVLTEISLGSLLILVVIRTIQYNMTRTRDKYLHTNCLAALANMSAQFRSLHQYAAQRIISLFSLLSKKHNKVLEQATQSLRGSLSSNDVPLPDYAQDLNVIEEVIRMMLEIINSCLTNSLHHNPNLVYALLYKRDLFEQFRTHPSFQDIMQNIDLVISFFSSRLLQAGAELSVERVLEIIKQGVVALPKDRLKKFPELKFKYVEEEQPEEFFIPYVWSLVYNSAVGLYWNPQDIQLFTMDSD
EEF1AKMT2, A0A494BZY7, UniProt A0A494BZY7, whole entry, looked up: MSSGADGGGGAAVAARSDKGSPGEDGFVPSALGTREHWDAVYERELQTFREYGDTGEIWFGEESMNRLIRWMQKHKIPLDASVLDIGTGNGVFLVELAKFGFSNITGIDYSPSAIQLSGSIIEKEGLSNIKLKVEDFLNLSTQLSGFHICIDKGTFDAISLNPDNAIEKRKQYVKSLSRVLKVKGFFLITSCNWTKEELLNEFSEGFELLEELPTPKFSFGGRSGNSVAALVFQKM
UniProt Q92611: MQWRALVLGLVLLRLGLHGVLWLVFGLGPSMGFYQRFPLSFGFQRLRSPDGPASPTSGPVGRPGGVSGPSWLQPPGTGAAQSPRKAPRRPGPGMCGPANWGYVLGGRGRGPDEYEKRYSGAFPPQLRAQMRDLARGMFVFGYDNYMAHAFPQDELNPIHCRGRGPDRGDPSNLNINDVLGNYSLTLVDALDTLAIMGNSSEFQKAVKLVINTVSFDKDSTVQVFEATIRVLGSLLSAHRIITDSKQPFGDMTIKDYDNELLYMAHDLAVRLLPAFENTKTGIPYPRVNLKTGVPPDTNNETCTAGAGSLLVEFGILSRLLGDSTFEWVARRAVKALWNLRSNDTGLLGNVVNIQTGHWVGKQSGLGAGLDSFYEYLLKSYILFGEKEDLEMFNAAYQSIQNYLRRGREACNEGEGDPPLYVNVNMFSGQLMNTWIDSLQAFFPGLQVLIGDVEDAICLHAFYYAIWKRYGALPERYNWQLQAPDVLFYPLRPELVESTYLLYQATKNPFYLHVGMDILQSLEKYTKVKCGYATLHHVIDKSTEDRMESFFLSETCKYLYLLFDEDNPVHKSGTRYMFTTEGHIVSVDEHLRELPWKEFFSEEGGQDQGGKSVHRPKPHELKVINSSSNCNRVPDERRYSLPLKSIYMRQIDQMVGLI
UniProt Q96G46: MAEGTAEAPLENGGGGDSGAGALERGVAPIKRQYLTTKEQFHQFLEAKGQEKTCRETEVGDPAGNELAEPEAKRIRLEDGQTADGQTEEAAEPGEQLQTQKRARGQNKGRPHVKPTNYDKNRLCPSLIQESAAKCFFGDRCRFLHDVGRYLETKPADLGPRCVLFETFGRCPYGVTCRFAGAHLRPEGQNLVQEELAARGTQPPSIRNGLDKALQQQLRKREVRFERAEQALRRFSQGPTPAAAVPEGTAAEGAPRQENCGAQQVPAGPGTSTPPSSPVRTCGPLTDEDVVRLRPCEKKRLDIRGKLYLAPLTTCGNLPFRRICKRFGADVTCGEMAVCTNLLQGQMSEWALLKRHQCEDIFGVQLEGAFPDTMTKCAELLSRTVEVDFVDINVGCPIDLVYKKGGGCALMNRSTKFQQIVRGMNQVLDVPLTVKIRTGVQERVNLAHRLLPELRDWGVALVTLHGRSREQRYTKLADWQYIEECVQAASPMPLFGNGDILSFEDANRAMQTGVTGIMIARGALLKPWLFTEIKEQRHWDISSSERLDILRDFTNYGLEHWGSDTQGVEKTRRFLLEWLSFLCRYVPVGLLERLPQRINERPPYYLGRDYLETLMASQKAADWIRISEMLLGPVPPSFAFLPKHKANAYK
UniProt Q9BVC3, whole entry, looked up: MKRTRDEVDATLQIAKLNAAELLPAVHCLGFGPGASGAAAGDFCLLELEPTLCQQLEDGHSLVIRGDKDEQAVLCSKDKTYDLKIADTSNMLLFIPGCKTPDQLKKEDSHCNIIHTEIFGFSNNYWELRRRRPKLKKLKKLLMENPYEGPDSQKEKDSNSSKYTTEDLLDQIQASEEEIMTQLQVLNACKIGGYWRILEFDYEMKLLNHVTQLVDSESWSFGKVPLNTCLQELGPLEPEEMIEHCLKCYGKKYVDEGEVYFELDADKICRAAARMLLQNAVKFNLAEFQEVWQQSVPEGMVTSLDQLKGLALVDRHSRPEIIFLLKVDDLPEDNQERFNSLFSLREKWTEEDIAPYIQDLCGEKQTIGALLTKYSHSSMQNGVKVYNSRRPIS
UniProt Q8WWZ3: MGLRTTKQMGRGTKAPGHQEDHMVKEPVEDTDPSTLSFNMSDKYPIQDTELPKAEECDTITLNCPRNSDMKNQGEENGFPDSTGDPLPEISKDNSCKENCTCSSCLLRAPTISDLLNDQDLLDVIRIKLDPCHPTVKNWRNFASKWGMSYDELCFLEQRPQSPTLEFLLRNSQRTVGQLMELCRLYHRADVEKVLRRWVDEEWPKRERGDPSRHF
UniProt Q96FJ2, whole entry, looked up: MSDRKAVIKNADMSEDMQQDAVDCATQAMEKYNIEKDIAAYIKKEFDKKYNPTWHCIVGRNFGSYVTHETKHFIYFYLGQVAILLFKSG
UniProt Q9BTV6: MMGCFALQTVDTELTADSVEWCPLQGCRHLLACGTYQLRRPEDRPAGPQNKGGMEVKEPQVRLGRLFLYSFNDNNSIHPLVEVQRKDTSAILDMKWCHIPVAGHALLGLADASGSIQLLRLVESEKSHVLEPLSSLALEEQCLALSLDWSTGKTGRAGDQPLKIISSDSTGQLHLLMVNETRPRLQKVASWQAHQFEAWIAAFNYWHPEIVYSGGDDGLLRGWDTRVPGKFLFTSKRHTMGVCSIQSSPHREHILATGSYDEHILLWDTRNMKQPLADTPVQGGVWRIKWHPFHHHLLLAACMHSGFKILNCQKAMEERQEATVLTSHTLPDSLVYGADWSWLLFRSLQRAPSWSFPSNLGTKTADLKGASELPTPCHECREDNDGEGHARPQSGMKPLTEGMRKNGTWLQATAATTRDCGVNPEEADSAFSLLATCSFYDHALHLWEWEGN
UniProt Q13011: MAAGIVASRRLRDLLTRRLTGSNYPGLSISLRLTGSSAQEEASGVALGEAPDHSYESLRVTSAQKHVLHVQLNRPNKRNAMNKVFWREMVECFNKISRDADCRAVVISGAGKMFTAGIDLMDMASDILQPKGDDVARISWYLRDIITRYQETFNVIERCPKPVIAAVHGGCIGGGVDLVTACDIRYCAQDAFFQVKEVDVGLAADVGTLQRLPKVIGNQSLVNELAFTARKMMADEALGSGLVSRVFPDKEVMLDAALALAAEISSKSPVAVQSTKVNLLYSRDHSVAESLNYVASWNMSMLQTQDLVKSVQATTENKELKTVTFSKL
UniProt Q9BVJ7: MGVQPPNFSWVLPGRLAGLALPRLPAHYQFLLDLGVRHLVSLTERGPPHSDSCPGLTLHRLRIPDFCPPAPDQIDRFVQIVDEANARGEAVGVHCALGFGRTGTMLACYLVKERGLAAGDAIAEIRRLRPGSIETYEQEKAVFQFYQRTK
UniProt Q9NP97, whole entry, looked up: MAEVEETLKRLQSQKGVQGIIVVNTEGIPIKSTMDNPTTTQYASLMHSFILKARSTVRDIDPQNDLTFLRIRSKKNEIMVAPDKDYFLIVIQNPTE
UniProt P29692: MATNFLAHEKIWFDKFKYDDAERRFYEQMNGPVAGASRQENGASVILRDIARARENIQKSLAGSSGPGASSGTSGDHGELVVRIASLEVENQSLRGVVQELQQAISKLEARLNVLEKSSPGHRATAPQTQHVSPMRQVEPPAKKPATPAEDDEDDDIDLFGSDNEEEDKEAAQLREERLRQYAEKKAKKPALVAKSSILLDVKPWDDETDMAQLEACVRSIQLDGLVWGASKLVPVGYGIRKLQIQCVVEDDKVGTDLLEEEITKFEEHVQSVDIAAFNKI
UniProt P24534: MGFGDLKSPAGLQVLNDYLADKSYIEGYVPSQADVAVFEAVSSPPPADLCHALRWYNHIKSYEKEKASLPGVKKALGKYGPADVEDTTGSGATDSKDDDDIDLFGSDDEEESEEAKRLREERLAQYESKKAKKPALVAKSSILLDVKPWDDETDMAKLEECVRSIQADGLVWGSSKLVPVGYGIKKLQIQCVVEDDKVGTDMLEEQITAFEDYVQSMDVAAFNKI
UniProt Q7L8W6: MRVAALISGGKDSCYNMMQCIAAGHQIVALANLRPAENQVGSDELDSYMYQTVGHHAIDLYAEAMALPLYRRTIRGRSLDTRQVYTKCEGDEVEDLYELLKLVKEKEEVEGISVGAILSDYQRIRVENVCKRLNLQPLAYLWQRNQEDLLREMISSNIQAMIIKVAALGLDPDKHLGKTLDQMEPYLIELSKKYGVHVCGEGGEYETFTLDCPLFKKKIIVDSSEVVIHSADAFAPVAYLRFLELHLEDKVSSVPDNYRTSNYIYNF
UniProt O75521: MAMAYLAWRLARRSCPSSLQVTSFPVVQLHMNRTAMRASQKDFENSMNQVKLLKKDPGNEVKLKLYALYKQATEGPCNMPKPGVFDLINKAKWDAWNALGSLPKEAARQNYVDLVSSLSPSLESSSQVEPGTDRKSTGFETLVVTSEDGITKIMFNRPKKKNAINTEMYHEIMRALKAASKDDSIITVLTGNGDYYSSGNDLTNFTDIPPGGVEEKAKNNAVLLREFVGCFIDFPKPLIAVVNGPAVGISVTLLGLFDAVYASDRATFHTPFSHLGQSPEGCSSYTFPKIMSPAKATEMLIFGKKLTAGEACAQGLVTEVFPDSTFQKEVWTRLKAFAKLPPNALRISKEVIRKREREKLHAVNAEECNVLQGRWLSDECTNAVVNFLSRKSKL
UniProt Q99848: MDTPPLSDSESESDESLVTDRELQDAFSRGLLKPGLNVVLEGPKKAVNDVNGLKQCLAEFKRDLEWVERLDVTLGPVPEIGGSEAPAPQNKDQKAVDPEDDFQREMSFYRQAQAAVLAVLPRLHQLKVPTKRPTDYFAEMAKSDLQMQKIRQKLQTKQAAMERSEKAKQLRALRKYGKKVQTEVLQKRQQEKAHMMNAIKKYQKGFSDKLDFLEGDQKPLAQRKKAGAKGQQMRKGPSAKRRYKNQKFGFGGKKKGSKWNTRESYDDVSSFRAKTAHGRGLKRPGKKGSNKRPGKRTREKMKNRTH

Compound in one assay: C1COCCN1CCN2C3=CC=CC=C3N=C2NC(=O)C4=CC(=CC=C4)[N+](=O)[O-] [IRAK-1-4 Inhibitor I]
Briefly: log2 fold change, soluble protein after heating vs DMSO (PISA); higher = thermal stabilisation; K562 lysate, 10 uM; active = over 0.2 and 3.5 SD of the protein, either way, in both replicates (recomputed). The method in brief: (§1)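 Following dounce homogenisation of K562 pellets in PBS pH 7.4 with 1 mM MgCl2, crude extract at 1 mg/mL protein was incubated for 30 min with 10 μM compound. Aliquots were then heated for 3 min over 48°C-58°C and pooled, NP-40 was added to 0.5% at 4°C, and soluble protein was recovered as the supernatant at 21,000xg for 90 min. Channel-sum-equalised TMTpro 16plex LC-MS/MS quantified this protein. Each value, from duplicates, is a log-two fold change in thermal stability relative to solvent controls.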
On to EIF1B (UniProt O60739), for which the log2 fold change is inactive: -0.093.

Consider EDF1 (UniProt O60869), for which the log2 fold change was inactive: 0.031.

In the case of DRAP1 isoform 2 (UniProt Q14919), the log2 fold change is inactive: 0.016.

E2F4 (UniProt Q16254): the log2 fold change is inactive: 0.008.

As to EFHD2 (UniProt Q96C19), the log2 fold change is inactive: 0.01.

Turning to DPP8 (UniProt Q6V1X1), the log2 fold change was inactive: -0.037.

Turning to DSN1 (UniProt Q9H410), the log2 fold change is inactive: 0.002.

In the case of DUS4L (UniProt O95620), the log2 fold change is inactive: -0.018.

For EEF1E1 (UniProt O43324), the log2 fold change is inactive: -0.014.

Regarding DYM (UniProt Q7RTS9), the log2 fold change was inactive: 0.024.

Regarding EFTUD2 (UniProt Q15029), the log2 fold change is inactive: -0.011.

For the target EIF2A (UniProt Q9BY44), the log2 fold change was inactive: -0.006.

Regarding EEF1AKMT2, A0A494BZY7, the log2 fold change is inactive: -0.009.

On to DPY19L1, A0A1B0GW05, for which the log2 fold change was inactive: 0.078.

As to EDEM1 (UniProt Q92611), the log2 fold change is inactive: 0.114.

Regarding DPYSL2 (UniProt Q16555), the log2 fold change is inactive: 0.04.

As to DUS3L (UniProt Q96G46), the log2 fold change was inactive: 0.017.

Take DSCC1 (UniProt Q9BVC3): the log2 fold change is inactive: 0.013.

As for EHBP1 isoform 2 (UniProt Q8NDI1), the log2 fold change is inactive: 0.008.

With EDARADD (UniProt Q8WWZ3), the log2 fold change was inactive: 0.031.

EFHD1 (UniProt Q9BUP0): the log2 fold change is inactive: -0.01.

For DTYMK (UniProt P23919), the log2 fold change is inactive: -0.028.

In the case of DYNLL2 (UniProt Q96FJ2), the log2 fold change was inactive: 0.054.

DPH7 (UniProt Q9BTV6): the log2 fold change was inactive: 0.068.

ECH1 (UniProt Q13011): the log2 fold change was inactive: -0.007.

Turning to DUSP23 (UniProt Q9BVJ7), the log2 fold change is inactive: 0.066.

Turning to DYNLRB1 (UniProt Q9NP97), the log2 fold change was inactive: -0.004.

Regarding DPP9 isoform 2 (UniProt Q86TI2), the log2 fold change is inactive: -0.02.

Take DPP7 (UniProt Q9UHL4): the log2 fold change is inactive: -0.011.

Regarding EEF1D isoform 2 (UniProt P29692), the log2 fold change is inactive: 0.011.

As for EEF1B2 (UniProt P24534), the log2 fold change is inactive: 0.014.

On to DUT (UniProt P33316), for which the log2 fold change is inactive: 0.021.

Take EED, A0A5F9ZI63: the log2 fold change was inactive: 0.021.

With DPH6 (UniProt Q7L8W6), the log2 fold change is inactive: 0.026.

Take ECT2 (UniProt Q9H8V3): the log2 fold change is inactive: -0.049.

In the case of DUSP3 (UniProt P51452), the log2 fold change was inactive: -0.028.

Turning to DYNC1H1 (UniProt Q14204), the log2 fold change was inactive: -0.003.

For the target EIF1AD (UniProt Q8N9N8), the log2 fold change was inactive: 0.019.

In the case of ECI2 (UniProt O75521), the log2 fold change was inactive: 0.054.

On to EBNA1BP2 (UniProt Q99848), for which the log2 fold change is inactive: -0.009.

Compound in the next assay: C=CC(=O)N1CCC[C@@H](n2nc(-c3ccc(Oc4ccccc4)cc3)c3c(N)ncnc32)C1 [ibrutinib]
Described as above. Summed up: as §1
Regarding EIF1B (UniProt O60739), the log2 fold change is inactive: -0.123.

For the target EDF1 (UniProt O60869), the log2 fold change is inactive: 0.008.

Turning to DRAP1 isoform 2 (UniProt Q14919), the log2 fold change is inactive: -0.021.

Turning to E2F4 (UniProt Q16254), the log2 fold change is inactive: 0.025.

For the target EFHD2 (UniProt Q96C19), the log2 fold change was inactive: 0.007.

In the case of DPP8 (UniProt Q6V1X1), the log2 fold change is inactive: 0.1.

For the target DSN1 (UniProt Q9H410), the log2 fold change was inactive: -0.004.

For the target DUS4L (UniProt O95620), the log2 fold change was inactive: 0.134.

In the case of EEF1E1 (UniProt O43324), the log2 fold change was inactive: 0.01.

In the case of DYM (UniProt Q7RTS9), the log2 fold change was inactive: -0.043.

With EFTUD2 (UniProt Q15029), the log2 fold change was inactive: 0.011.

Turning to EIF2A (UniProt Q9BY44), the log2 fold change was inactive: 0.009.

Turning to EEF1AKMT2, A0A494BZY7, the log2 fold change was inactive: 0.035.

For DPY19L1, A0A1B0GW05, the log2 fold change is inactive: -0.013.

For the target EDEM1 (UniProt Q92611), the log2 fold change was inactive: 0.025.

In the case of DPYSL2 (UniProt Q16555), the log2 fold change was inactive: 0.046.

With DUS3L (UniProt Q96G46), the log2 fold change is inactive: 0.012.

Consider DSCC1 (UniProt Q9BVC3), for which the log2 fold change was inactive: -0.038.

Regarding EHBP1 isoform 2 (UniProt Q8NDI1), the log2 fold change was inactive: 0.019.

With EDARADD (UniProt Q8WWZ3), the log2 fold change was inactive: 0.22.

For EFHD1 (UniProt Q9BUP0), the log2 fold change is inactive: 0.015.

On to DTYMK (UniProt P23919), for which the log2 fold change is inactive: 0.027.

In the case of DYNLL2 (UniProt Q96FJ2), the log2 fold change was inactive: -0.037.

On to DPH7 (UniProt Q9BTV6), for which the log2 fold change is inactive: -0.002.

As for ECH1 (UniProt Q13011), the log2 fold change is inactive: -0.035.

DUSP23 (UniProt Q9BVJ7): the log2 fold change is inactive: 0.036.

As for DYNLRB1 (UniProt Q9NP97), the log2 fold change is inactive: 0.02.

Regarding DPP9 isoform 2 (UniProt Q86TI2), the log2 fold change was inactive: 0.021.

DPP7 (UniProt Q9UHL4): the log2 fold change was inactive: -0.006.

For the target EEF1D isoform 2 (UniProt P29692), the log2 fold change was inactive: 0.004.

In the case of EEF1B2 (UniProt P24534), the log2 fold change is inactive: -0.008.

As to DUT (UniProt P33316), the log2 fold change is inactive: -0.001.

With EED, A0A5F9ZI63, the log2 fold change was inactive: -0.026.

On to DPH6 (UniProt Q7L8W6), for which the log2 fold change was inactive: -0.016.

Turning to ECT2 (UniProt Q9H8V3), the log2 fold change is inactive: 0.053.

On to DUSP3 (UniProt P51452), for which the log2 fold change was inactive: -0.041.

Take DYNC1H1 (UniProt Q14204): the log2 fold change is inactive: -0.012.

For EIF1AD (UniProt Q8N9N8), the log2 fold change is inactive: 0.052.

In the case of ECI2 (UniProt O75521), the log2 fold change was inactive: 0.01.

For the target EBNA1BP2 (UniProt Q99848), the log2 fold change was inactive: 0.021.

The values above are taken from the supplement of paper PMC10849652.
